Experimental data taken from PMC3702609.
These are yes or no findings as the source states them, for the method shown. Binding seen in cells or lysates may run through a third protein. Some results given as binding are weak or reduced against the parent protein; the word gives no strength. For some assays here: Where a sequence is shown, tags or fusion partners need not be part of it. Values belong to the molecule of their own block, whether it stands above or below them.

Chains of the proteins cited; added tags and fusions are not shown.
UniProt P22317: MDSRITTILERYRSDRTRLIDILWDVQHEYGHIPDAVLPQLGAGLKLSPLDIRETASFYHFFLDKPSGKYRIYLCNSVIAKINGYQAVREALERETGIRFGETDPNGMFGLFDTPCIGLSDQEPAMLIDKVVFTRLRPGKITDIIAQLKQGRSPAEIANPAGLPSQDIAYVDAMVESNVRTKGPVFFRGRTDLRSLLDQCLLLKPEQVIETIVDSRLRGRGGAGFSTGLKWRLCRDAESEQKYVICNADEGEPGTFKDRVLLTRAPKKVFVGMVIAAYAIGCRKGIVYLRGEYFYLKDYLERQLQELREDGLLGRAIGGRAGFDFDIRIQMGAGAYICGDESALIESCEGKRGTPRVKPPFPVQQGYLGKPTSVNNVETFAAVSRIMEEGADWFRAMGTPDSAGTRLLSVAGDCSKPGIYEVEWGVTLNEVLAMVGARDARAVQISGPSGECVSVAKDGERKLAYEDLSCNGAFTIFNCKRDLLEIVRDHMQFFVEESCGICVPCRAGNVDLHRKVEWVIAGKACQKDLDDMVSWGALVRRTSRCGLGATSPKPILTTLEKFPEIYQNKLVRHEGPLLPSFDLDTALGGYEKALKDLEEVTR
UniProt P22318: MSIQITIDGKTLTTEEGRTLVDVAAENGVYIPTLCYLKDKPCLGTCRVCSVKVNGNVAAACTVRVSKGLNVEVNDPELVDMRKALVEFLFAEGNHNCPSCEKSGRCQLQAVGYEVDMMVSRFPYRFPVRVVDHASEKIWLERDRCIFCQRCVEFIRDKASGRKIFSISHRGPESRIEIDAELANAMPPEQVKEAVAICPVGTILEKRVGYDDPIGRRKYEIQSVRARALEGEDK
UniProt P22319: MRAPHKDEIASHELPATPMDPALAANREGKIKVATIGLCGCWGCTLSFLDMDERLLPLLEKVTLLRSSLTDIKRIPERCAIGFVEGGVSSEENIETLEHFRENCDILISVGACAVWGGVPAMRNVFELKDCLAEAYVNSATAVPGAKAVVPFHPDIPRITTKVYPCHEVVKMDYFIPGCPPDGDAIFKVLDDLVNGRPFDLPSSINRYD

Key:
[1] = target: T1, HoxI, diaphorase-associated subunit of the soluble [NiFe]-hydrogenase (SH) with NADPH activation site, N-terminally StrepII-tagged (Cupriavidus necator H16) (UniProt Q79IN9); assay: pull-down; as a1 with a 1 mL StrepTactin Superflow gravity flow column and Superdex 200 gel filtration, strain SH2F, cells harvested after 44 hours of cultivation; SDS-PAGE
T1 sequence: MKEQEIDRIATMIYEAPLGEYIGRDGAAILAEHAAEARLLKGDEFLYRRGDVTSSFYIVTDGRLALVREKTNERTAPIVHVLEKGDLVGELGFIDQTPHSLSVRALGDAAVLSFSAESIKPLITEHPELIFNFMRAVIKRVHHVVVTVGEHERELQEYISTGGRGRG

[2] = target: T1, HoxI, diaphorase-associated subunit of the soluble [NiFe]-hydrogenase (SH) with NADPH activation site, N-terminally StrepII-tagged (Cupriavidus necator H16); assay: pull-down; Strep-Tactin Superflow affinity chromatography of the soluble extract of E. coli co-expressing the SH subunits (50 mM KPi pH 7.0, elution with 2.5 mM desthiobiotin), then Superdex 200 HR 10/300 gel filtration; SDS-PAGE; cells harvested 36-40 h after inoculation
[3] = target: HoxF, diaphorase large subunit of the NAD+-reducing soluble [NiFe]-hydrogenase (SH), N-terminally StrepII-tagged (Cupriavidus necator H16) (UniProt P22317); assay: as above
[4] = target: T1, HoxI, diaphorase-associated subunit of the soluble [NiFe]-hydrogenase (SH) with NADPH activation site, N-terminally StrepII-tagged (Cupriavidus necator H16); assay: as above; remark: listed apart in the source

Molecule: HoxU, diaphorase small subunit of the soluble [NiFe]-hydrogenase (SH) (from UniProt P22318 1-234)
binding [1]: binds
binding [2]: binds
binding [3]: binds

Molecule: HoxY, hydrogenase small subunit of the soluble [NiFe]-hydrogenase (SH) (from UniProt P22319 1-209)
binding [2]: binds
binding [3]: binds

Continued, values first:

binding [1]: binds
binding [2]: binds
Molecule: HoxF, diaphorase large subunit of the soluble [NiFe]-hydrogenase (SH), untagged (from UniProt P22317 1-602)

binding [4]: binds
B1: HoxI, diaphorase-associated subunit of the soluble [NiFe]-hydrogenase (SH) with NADPH activation site, N-terminally StrepII-tagged (protein, UniProt Q79IN9 1-167)
chain: T1 sequence
